# Screening data, single-dose tests

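Assay of Toxoplasma gondii numbers, read through their beta-galactosidase reporter with a colour substrate. Concentration: 50 µM. The record gives no direction; the compounds picked for IC50 retests had high values, so higher reads as fewer parasites. Of about 18,000 compounds tested this way, about 170 (0.94%) reached 50% or more in at least one test.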

The filed quantity is “Percent Effect” (%). The controls that fix the scale are not given in the record; negative values are as filed. Compounds were drawn at random from those tested, without regard to their results.

compound	Percent Effect
CCNC(=O)C1CCCN1C(=O)Nc1ccccc1 (centres undefined)	-13.21%
CC(N)C(=O)NCCN(C)C (centres undefined)	-4.665%
CC(C)(CCS(C)(=O)=O)NC1CCCCC1	-31.48%
CCn1nc(C)cc1C(=O)NCCCc1cccnc1	-9.715%
N[C@H]1CC[C@H](Oc2ncccc2Cl)CC1	10.03%
CC(N[C@@H]1C=C[C@H](CO)C1)c1cncc(F)c1 (some centres undefined)	-1.459%
NCCN1C(=O)c2ccccc2C1=O	-4.234%
CC(=O)N1CCc2[nH]c3ccccc3c2C1	8.244%
CCNC(=O)c1cc(N2CCC(COC)CC2)ccn1	13.45%
CC1CN(CCCOc2ccc(C#N)cc2)CCN1 (centres undefined)	3.952%
CCCC(N)C(=O)Nc1cccc(N2CCCC2)c1 (centres undefined)	-6.724%
CNCC(=O)N1CCCc2ccccc21	-8.919%
CNC(=O)N1CCN(c2ccncc2)CC1	2.737%
N#Cc1ccc(OCC(O)CN2CCSCC2)cc1 (centres undefined)	-16.79%
O=C1CCN(C(=O)CCCSc2ccccc2)CCN1	-2.506%
COc1cccc(NC(=O)CN(C)C(=O)C2CCC2)c1	-0.08587%
COCC(=O)N1C[C@@H](CN2CCCCC2)[C@@H](CO)C1	0.8246%
Cc1cc(F)cc(NCc2ncc[nH]2)c1	2.637%
CCCOCC(=O)NCc1ccc(S(C)(=O)=O)cc1	-13.38%
NC(=O)COc1cccc(CN2CCCCC2CO)c1 (centres undefined)	-11.35%
Cc1ccc(CNCCN2CCOCC2)s1	-0.4782%
CC1(C)CN(C(=O)NC2CCN(C3CC3)CC2)CCO1	-1.199%
O=C(Cc1cccs1)NCC1CCCCC(=O)N1 (centres undefined)	-55.48%
NS(=O)(=O)CC1CCCCN1 (centres undefined)	18.83%
CN(C)c1ncc(CN(CCO)Cc2nccs2)cn1	15.51%
CC(C)(C)OC(=O)NC1CNNC1=O (centres undefined)	17.74%
Cc1nnc(SCC(=O)NCC(C)C)s1	-8.278%
CC(=O)c1ccc(NC(=O)CN2CCN(C)CC2)cc1	1.738%
Cc1cc(C)c(C(=O)N2CC(CO)C2)o1	10.33%
c1nc(CO[C@H]2CCOC[C@H]2NC2CCOCC2)cs1	-7.08%
Cc1nnc(SCCN)s1	-4.225%
Cl.Cl.N[C@@H]1CCN(c2cccnc2)C1	0.3358%
O=C(c1ccon1)N(Cc1cccs1)CC1CCCO1 (centres undefined)	28.32%
COC(=O)c1ccccc1S(=O)(=O)N1CCCCC1	10.48%
Cc1cc(C(=O)NCCNc2cccnc2)cnc1C	5.262%
COCC(C#N)NC(=O)CCNc1ccccc1 (centres undefined)	20.2%
COC(=O)C1CCN(C(=O)C2CCCC2)CC1	-3.493%
Cc1noc(C(=O)NCCN2CCOCC2)c1Cl	-0.7033%
CCC1(CN)COC1	17.89%
COCC1(NC(=O)CCc2ccncc2)CCCC1	-4.408%
CCOC(CC)CNC(=O)c1ccc(CN(C)C)o1 (centres undefined)	9.098%
CC(C)CC(=O)N1CCN(C(=O)N2CCCCC2)CC1	-1.226%
CN(C)C(=O)c1ccc(Oc2ncccn2)cc1	-3.725%
COCc1ccccc1CNC(=O)Nc1ncnn1C	-5.299%
N[C@@H]1CCc2ccccc21	-4.294%
CC(=O)NCCC(=O)N(C)Cc1noc(C(C)C)n1	-11.73%
OCCNCCNCc1ccc(-c2cccc(Cl)c2)o1	71.47%
NCc1ccc2c(n1)CCCC2	-3.838%
CN(CCC#N)C(=O)CNC(=O)c1ncccc1O	0.1293%
O=C(NCC1CCCO1)Nc1cn[nH]c1 (centres undefined)	-11.91%
O=C1CCC(N2CCNCC2)CCN1 (centres undefined)	35.65%
CCOC(=O)c1sc(O)nc1C	-0.2183%
NS(=O)(=O)Cc1cc(-c2ccccc2)no1	-22.09%
O=C(NC1(CCO)CCC1)c1c(O)cc(F)cc1F	-3.362%
NC(=O)COc1cccc(CN2CCC(F)CC2)c1	-2.246%
CC(N)C(=O)Nc1nc(-c2ccc(O)cc2)cs1 (centres undefined)	19.28%
CN(C)c1ncccc1CNS(=O)(=O)c1ccccc1	-3.832%
CN(Cc1ccc2c(c1)OCO2)C(=O)c1cncs1	5.195%
COc1ccc(CN2CCCC(CO)C2)cc1OC (centres undefined)	3.025%
Cn1cc(CCNC(=O)NCC2(C)CCCS2)cn1 (centres undefined)	-2.834%
Cc1cc(N2CCC(N)CC2)nc(C)n1	27.53%
NCc1ccc(N2CCNC(=O)C2)cc1	6.006%
c1ccc(NC2CCN(C3CCCC3)C2)nc1 (centres undefined)	-6.462%
OCC1CCCN1c1ncnc2ccc(F)cc12 (centres undefined)	9.037%
CN1CC2(CCN(CCOCCO)CC2)OC1=O	-4.772%
N#Cc1ccc(NC(=O)CCSCC(N)=O)cc1	3.596%
NC(=O)C1CCCN(CCCc2ccccc2)C1 (centres undefined)	-8.362%
CNC1CCN(S(C)(=O)=O)C1 (centres undefined)	3.404%
Cn1ncc2c(N3CCCCC3)ncnc21	-1.028%
O=C(NC(C1CCNCC1)[C@H]1C[C@H](O)C1)C1(CO)CC1 (some centres undefined)	0.4834%
OCCC1CCCN1 (centres undefined)	-11.81%
COc1cc(F)ccc1C(C)N (centres undefined)	-6.813%
CCN(CC(C)C#N)C(=O)c1ccc(C)[nH]c1=O (centres undefined)	19.9%
CC(C)CC(=O)NCCc1noc(-c2ccncc2)n1	-2.705%
NCc1ccc(-n2cccn2)cc1	-1.887%
CCN(CCC#N)C(=O)Cn1ccc2sccc2c1=O	-10.15%
COc1ncccc1CN(C)C(=O)CNC(C)=O	-10.62%
CCC1CN(C(=O)c2c(C)nsc2NC)CCO1 (centres undefined)	-0.3543%
CC(C)(C)OC(=O)N1CCN2C(=O)NCC2C1 (centres undefined)	1.083%
CS(=O)(=O)N(c1ccc(OCCN)cc1)S(C)(=O)=O	-10.37%
NC(=O)c1ccc(C(=O)OC2CCCCC2)nc1	-2.187%
CC(=O)N1CCc2cc(C(=O)C(C)O)ccc21 (centres undefined)	-4.938%
CN(CCNC(=O)c1cc[nH]n1)Cc1ccccc1	4.926%

Repeated from the top, 7 entries:

| compound | Percent Effect |
|---|---|
| `CCNC(=O)C1CCCN1C(=O)Nc1ccccc1` (centres undefined) | -13.21% |
| `CC(N)C(=O)NCCN(C)C` (centres undefined) | -4.665% |
| `CC(C)(CCS(C)(=O)=O)NC1CCCCC1` | -31.48% |
| `CCn1nc(C)cc1C(=O)NCCCc1cccnc1` | -9.715% |
| `N[C@H]1CC[C@H](Oc2ncccc2Cl)CC1` | 10.03% |
| `CC(N[C@@H]1C=C[C@H](CO)C1)c1cncc(F)c1` (some centres undefined) | -1.459% |
| `NCCN1C(=O)c2ccccc2C1=O` | -4.234% |

Data taken from ChEMBL document CHEMBL3988442, “University of Dundee, Small-Polar-MMV Screening Library” (2021).